Test results: paper PMC7666215
No constants are given. Whether binding was seen depends on the method and setting. Some results given as binding are weak or reduced against the parent protein; the word gives no strength.

Sequences of proteins named here, by UniProt entry; tags and fusion partners are left off.
UniProt Q86WJ1: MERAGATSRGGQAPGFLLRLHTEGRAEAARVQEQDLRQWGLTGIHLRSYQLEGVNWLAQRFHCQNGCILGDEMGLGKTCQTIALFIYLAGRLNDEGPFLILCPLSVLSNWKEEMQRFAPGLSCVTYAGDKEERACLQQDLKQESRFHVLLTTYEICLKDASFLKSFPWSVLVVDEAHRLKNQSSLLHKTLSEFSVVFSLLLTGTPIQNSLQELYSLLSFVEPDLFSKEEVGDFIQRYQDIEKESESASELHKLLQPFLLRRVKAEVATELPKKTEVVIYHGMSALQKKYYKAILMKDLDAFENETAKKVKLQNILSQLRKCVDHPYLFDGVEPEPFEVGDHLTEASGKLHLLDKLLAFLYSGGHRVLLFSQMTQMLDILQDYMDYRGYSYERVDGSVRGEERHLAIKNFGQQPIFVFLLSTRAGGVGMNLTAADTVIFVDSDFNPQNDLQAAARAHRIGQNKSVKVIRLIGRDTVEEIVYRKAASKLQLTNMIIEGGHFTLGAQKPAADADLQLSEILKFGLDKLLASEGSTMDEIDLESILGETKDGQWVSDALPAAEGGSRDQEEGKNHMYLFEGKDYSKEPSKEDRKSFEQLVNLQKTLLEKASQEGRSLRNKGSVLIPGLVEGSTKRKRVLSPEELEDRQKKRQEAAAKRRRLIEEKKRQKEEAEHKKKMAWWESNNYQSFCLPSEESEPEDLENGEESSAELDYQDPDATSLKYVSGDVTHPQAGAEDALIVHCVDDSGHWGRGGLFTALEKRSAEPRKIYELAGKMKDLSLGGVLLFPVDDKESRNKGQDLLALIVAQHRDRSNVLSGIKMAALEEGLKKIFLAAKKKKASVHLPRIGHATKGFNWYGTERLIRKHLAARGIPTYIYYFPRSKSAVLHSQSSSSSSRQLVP
UniProt P09874: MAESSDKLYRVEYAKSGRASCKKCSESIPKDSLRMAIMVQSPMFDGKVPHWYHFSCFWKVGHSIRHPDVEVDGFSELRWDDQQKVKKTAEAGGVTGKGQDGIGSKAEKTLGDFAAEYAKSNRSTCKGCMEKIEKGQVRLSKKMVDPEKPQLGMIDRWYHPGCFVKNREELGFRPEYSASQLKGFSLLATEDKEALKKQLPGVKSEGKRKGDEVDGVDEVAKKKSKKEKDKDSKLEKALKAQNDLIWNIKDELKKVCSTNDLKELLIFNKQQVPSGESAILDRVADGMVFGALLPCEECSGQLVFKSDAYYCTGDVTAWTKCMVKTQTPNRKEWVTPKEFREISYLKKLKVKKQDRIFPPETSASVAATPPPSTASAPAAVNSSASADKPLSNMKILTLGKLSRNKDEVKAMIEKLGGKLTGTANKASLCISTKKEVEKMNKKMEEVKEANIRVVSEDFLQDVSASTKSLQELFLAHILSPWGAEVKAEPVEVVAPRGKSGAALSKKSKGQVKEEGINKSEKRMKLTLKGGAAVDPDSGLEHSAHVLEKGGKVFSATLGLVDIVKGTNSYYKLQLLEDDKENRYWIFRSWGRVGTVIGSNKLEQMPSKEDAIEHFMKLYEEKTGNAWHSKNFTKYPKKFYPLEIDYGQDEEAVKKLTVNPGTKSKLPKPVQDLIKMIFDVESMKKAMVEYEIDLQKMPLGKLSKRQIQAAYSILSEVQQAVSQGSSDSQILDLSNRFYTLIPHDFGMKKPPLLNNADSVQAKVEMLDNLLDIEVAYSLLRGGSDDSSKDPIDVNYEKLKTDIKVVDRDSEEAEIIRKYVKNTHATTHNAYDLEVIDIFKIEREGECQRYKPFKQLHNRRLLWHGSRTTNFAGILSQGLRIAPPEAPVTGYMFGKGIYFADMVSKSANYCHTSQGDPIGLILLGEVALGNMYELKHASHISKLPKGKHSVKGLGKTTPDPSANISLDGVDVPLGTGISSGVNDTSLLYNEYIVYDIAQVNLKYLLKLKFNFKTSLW

Target: GFP–ALC1 (UniProt Q86WJ1)
Test: fluorescence three-hybrid assay; GFP-tagged protein tethered to a genomic LacO array by a LacI-GFP trap in U2OS-2B2 cells expressing mCherry-PARP1; Hoechst sensitisation, 405 nm micro-irradiation; mCherry signal at the array pre and 60 s post damage

PARylated mCherry-PARP1 (from UniProt P09874 1-1014)
binding: binds
